Among the data in ChEMBL document CHEMBL6134800, “Applications of innovative synthetic strategies in anticancer drug discovery: The driving force of new chemical reactions” (Bioorg Med Chem Lett, 2025) are IC50 values, retold here.

In this test the test system is Escherichia coli. In words: Antimicrobial activity against Escherichia coli assessed as reduction in microbial growth. Type of test: functional, organism-based.

Molecules are shown by their SMILES.

Turning to `CN[C@@H]1[C@@H](O)[C@@H](O[C@@H]2[C@@H](O)[C@H](O[C@H]3O[C@H](CN)CC[C@H]3N)[C@@H](N)C[C@H]2N)OC[C@]1(C)O` [GENTAMICIN C1A], the IC50 (commonly the point on the concentration scale where inhibition reaches its midpoint) stood at 4.23 µM.
